Measured values as given in US11118167B2, “Enzyme-mediated depletion of adenosine and/or methylthioadenosine” (BOARD OF REGENTS, THE UNIVERSITY OF TEXAS SYSTEM, priority 2017, dated 2021).
For part of these data: The name of at least one read-out is uncertain. For part of these data: At least one compound was matched to its structure with a doubt left.

B1: hs-MTAP: MTAP enzyme from Homo sapiens (SEQ ID NO: 1), N-terminal His6 tag, expressed in E. coli (protein, listed as Homo sapiens)
chain: MASGTTTTAVKIGIIGGTGLDDPEILEGRTEKYVDTPFGKPSDALILGKIKNVDCVLLARHGRQHTIMPSKVNYQANIWALKEEGCTHVIVTTACGSLREEIQPGDIVIIDQFIDRTTMRPQSFYDGSHSCARGVCHIPMAEPFCPKTREVLIETAKKLGLRCHSKGTMVTIEGPRFSSRAESFMFRTWGADVINMTTVPEVVLAKEAGICYASIAMATDYDCWKEHEEAVSVDRVLKTLKENANKAKSLLLTTIPQIGSTEWSETLHNLKNMAQFSVLLPRH
modifications: N-terminal His6 tag
B2: se-MTAN: MTAN enzyme from Salmonella enterica (SEQ ID NO: 3), N-terminal His6 tag, expressed in E. coli (protein, listed as Salmonella enterica)
chain: MKIGIIGAMEEEVTLLRDKIDNRQTITLGGCEIYTGQLNGTEVALLKSGIGKVAAALGATLLLEHCKPDVIINTGSAGGLASTLKVGDIVVSDETRYHDADVTAFGYEYGQLPGCPAGFKADDKLIAAAESCIRELNLNAVRGLIVSGDAFINGSVGLAKIRHNFPDAVAVEMEATAIAHVCHNFNVPFVVVRAISDVADQQSHLSFDEFLAVAAKQSTLMVETLVQKLAHG
modifications: N-terminal His6 tag

Assays:
murine T cells = test: Restoring proliferation of murine T cells treated with MTA (CellTrace Violet, FACS); type: cell-based, mouse; details: 0, 125 or 250 μM MTA, five days, dose-dependent
Text: Spleens dissected from healthy 8-week-old C57BL6 mice were crushed in a 70 μm Falcon™ Cell Strainer to obtain single cells, which were further isolated using the EasySep™ Mouse T-Cell Isolation Kit (Stem Cell). Isolated T cells were brought to a concentration of 1×10^6 cells/mL in PBS and were processed according to the CellTrace™ Violet Cell Proliferation Kit protocol (Thermo Fisher), which measures proliferation as a function of dye dilution with each cell-division. The labeled cells were then re-counted and brought to 1×10^6 cells/mL of RPMI media and 1 mL/well were plated, after which anti-CD3/CD28 beads were added to activate the T cells (Dynabeads® Mouse T-Activator CD3/CD28 for T-Cell Expansion and Activation from Thermo Fisher) according to the protocol from the kit. Subsequently, three different MTA concentrations, 0 μM MTA, 125 μM MTA, or 250 μM MTA were added to the plated cells. Finally, MTAP and MTAN were added to the appropriate wells at a final concentration of 5 μM enzyme, and PBS was added to the control wells. After incubation for five days, cells were then collected and stained with anti-CD3, anti-CD4, anti-CD8, and Fixable Viability Dye eFluor™ 520 and analyzed by FACS. The antibodies used were all from Biolegend: PE anti-mouse CD3 (17A2), APC anti-mouse CD4 (GK1.5), APC/Fire™ 750 anti-mouse CD8a (53-6.7), and Brilliant Violet 421™ anti-mouse Ki-67 (16A8). […]

[1] = Spectrophotometric assay for kinetic parameters of MTA degradation; type: biochemical; details: substrate MTA, PBS pH 7.4, 37° C., ~10 nM enzyme
[2] = Spectrophotometric assay for kinetic parameters of adenosine degradation; type: biochemical; details: substrate adenosine (ADO), PBS pH 7.4, 37° C., ~20 nM enzyme

| Molecule | proliferation and viability of CD4+ T cells (murine T cells) | proliferation and viability of CD8+ T cells (murine T cells) | kcat/KM [1] [M⁻¹ s⁻¹] | kcat/KM [2] [M⁻¹ s⁻¹] |
| --- | --- | --- | --- | --- |
| CSC[C@H]1O[C@@H](n2cnc3c(N)ncnc32)[C@H](O)[C@@H]1O [MTA, methylthioadenosine] | to a lesser extent | potently inhibited | – | – |
| B1 | – | – | 100000 | 50000 |
| B2 | – | – | 300000 | 100000 |
